± gives the standard deviation of the averaged measurements. Most entries show no effect beyond the scatter of the controls.
Legend:
Assay in all cases: level (log10 ratio to DMSO vehicle control); higher = higher biomarker level / cell amount than vehicle control
[1] = compound: O=S(=O)(O)C(F)(F)C(F)(F)C(F)(F)C(F)(F)C(F)(F)C(F)(F)C(F)(F)C(F)(F)F [Perfluorooctanesulfonic acid]; details: 2200 nM; in DMSO
Experimental: (§1)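 BioMAP Diversity Plus panel of 12 human primary cell co-culture systems (3C, 4H, LPS, SAg, BT, BF4T, BE3C, CASM3C, HDF3CGF, KF3CT, MyoF, Mphg). Compounds were added 1 h before stimulation and left for 24 h (MyoF 48 h; BT 72 h for soluble read-outs or 6 d for IgG). Biomarkers were read by ELISA, cytotoxicity by SRB, PBMC viability and proliferation by Alamar Blue. Each well value was divided by the mean of 8 DMSO control wells on the same plate and log10 transformed; duplicate blinded samples were tested at 4 concentrations.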

[2] = compound: C=C(C)C(=O)OCC(F)(F)C(F)(F)C(F)(F)C(F)(F)C(F)(F)C(F)(F)C(F)(F)F; details: in DMSO
Experimental: as §1

[3] = compound: O=P(O)(O)CCC(F)(F)C(F)(F)C(F)(F)C(F)(F)C(F)(F)C(F)(F)F [2-(Perfluorohexyl)ethylphosphonic acid]; details: 2200 nM; in DMSO
Experimental: as §1

[4] = compound: FC(F)(F)C(F)(F)C(F)(F)CC1CO1 [1H,1H-Heptafluorobutyl epoxide]; details: 2200 nM; in DMSO
Experimental: as §1

[5] = compound: O=S(=O)(OCC(F)(F)F)C(F)(F)C(F)(F)C(F)(F)C(F)(F)F [2,2,2-Trifluoroethyl perfluorobutanesulfonate]; details: 2200 nM; in DMSO
Experimental: as §1

[6] = compound: COC(=O)C(F)(F)C(F)(F)OC(F)(C(F)(F)F)C(F)(F)OC(F)=C(F)F [Methyl perfluoro(3-(1-ethenyloxypropan-2-yloxy)propanoate)]; details: in DMSO
Experimental: as §1

[7] = compound: CO[Si](C)(CCC(F)(F)C(F)(F)C(F)(F)C(F)(F)C(F)(F)C(F)(F)F)OC [Dimethoxymethyl((perfluorohexyl)ethyl)silane]; details: in DMSO
Experimental: as §1

[8] = compound: C=CC(=O)OCC(F)(F)C(F)(F)C(F)(F)C(F)(F)C(F)(F)C(F)(F)C(F)(F)F [1H,1H-Perfluorooctyl acrylate]; details: 2200 nM; in DMSO
Experimental: as §1

[9] = compound: C=CC(F)(F)C(F)(F)C(F)(F)C(F)(F)C(F)(F)C(F)(F)C(F)(F)C(F)(F)C=C [1,8-Divinylperfluorooctane]; details: in DMSO
Experimental: as §1

[10] = compound: OCC(F)(F)C(F)(F)C(F)(F)C(F)(F)C(F)(F)C(F)F [1H,1H,7H-Dodecafluoro-1-heptanol]; details: 2200 nM; in DMSO
Experimental: as §1

[11] = compound: NS(=O)(=O)C(F)(F)C(F)(F)C(F)(F)C(F)(F)C(F)(F)C(F)(F)C(F)(F)C(F)(F)F [Perfluorooctanesulfonamide]; details: in DMSO
Experimental: as §1

[12] = compound: O=S(=O)(F)C(F)(F)C(F)(F)C(F)(F)C(F)(F)C(F)(F)C(F)(F)C(F)(F)C(F)(F)F [Perfluorooctanesulfonyl fluoride]; details: 2200 nM; in DMSO
Experimental: as §1

[13] = compound: O=S(=O)(O)C(F)(F)C(F)(F)C(F)(F)C(F)(F)C(F)(F)C(F)(F)C(F)(F)C(F)(F)F [Potassium perfluorooctanesulfonate]; details: 2200 nM; in DMSO
Experimental: as §1

[14] = compound: NC(=O)C(F)(F)C(F)(F)C(F)(F)C(F)F; details: in DMSO
Experimental: as §1

[15] = compound: O=C(O)C(F)(F)C(F)(F)C(F)F [4H-Perfluorobutanoic acid]; details: in DMSO
Experimental: as §1

Pentafluoropropionamide = compound: NC(=O)C(F)(F)C(F)(F)F [Pentafluoropropionamide]; details: 2200 nM; in DMSO
Experimental: as §1

[16] = compound: OCCCCC(F)(F)C(F)(F)C(F)(F)C(F)(F)F [4:4 Fluorotelomer alcohol]; details: 2200 nM; in DMSO
Experimental: as §1

Heptafluorobutyl iodide = compound: FC(F)(F)C(F)(F)C(F)(F)CI [Heptafluorobutyl iodide]; details: 2200 nM; in DMSO
Experimental: as §1

Test System	level (log10) [1]	level (log10) ([2]; 740 nM)	level (log10) ([2]; 2200 nM)	level (log10) [3]	level (log10) [4]	level (log10) [5]	level (log10) ([6]; 740 nM)	level (log10) ([6]; 2200 nM)	level (log10) ([7]; 740 nM)	level (log10) ([7]; 2200 nM)	level (log10) [8]	level (log10) ([9]; 740 nM)	level (log10) ([9]; 2200 nM)	level (log10) [10]	level (log10) ([11]; 2200 nM)	level (log10) ([11]; 6700 nM)	level (log10) ([11]; 20000 nM)	level (log10) [12]	level (log10) [13]	level (log10) ([14]; 2200 nM)	level (log10) ([14]; 6700 nM)	level (log10) ([14]; 20000 nM)	level (log10) ([14]; 60000 nM)	level (log10) ([15]; 2200 nM)	level (log10) ([15]; 6700 nM)	level (log10) ([15]; 20000 nM)	level (log10) ([15]; 60000 nM)	level (log10) (Pentafluoropropionamide)	level (log10) [16]	level (log10) (Heptafluorobutyl iodide)
3C:CD141/Thrombomodulin	0.005 ± 0.02	-0.03 ± 0.0042	-0.0185 ± 0.005	0.022 ± 0.0028	-0.0275 ± 0.043	-0.027 ± 0.02	-0.0285 ± 0.035	-0.033 ± 0.025	-0.006 ± 0.03	-0.0195 ± 0.005	-0.008 ± 0.044	-0.016 ± 0.037	-0.027 ± 0.0057	-0.0005 ± 0.0035	-0.0035 ± 0.05	0.018 ± 0.0099	0.107 ± 0.0014	-0.034 ± 0.014	0.0225 ± 0.013	-0.014 ± 0.03	-0.0285 ± 0.074	0 ± 0.03	-0.0075 ± 0.026	-0.0215 ± 0.011	-0.0285 ± 0.0078	-0.008 ± 0.013	0.0035 ± 0.0035	-0.019 ± 0.021	-0.004 ± 0.065	0.0105 ± 0.0078
LPS:CD142/Tissue Factor	0.0125 ± 0.026	0.0025 ± 0.04	0.008 ± 0.054	0.0185 ± 0.11	0.03 ± 0.03	-0.0735 ± 0.033	-0.0045 ± 0.015	0.005 ± 0.052	0.01 ± 0.0042	-0.0215 ± 0.0021	0.007 ± 0.011	-0.038 ± 0.055	-0.0615 ± 0.00071	-0.008 ± 0.0014	-0.006 ± 0.065	-0.024 ± 0.047	-0.043 ± 0.0071	0.0125 ± 0.0064	0 ± 0.05	-0.011 ± 0.018	-0.0215 ± 0.00071	0.005 ± 0.0028	-0.007 ± 0.0014	0.0115 ± 0.019	-0.0205 ± 0.032	0.015 ± 0.033	0.0185 ± 0.0092	-0.0435 ± 0.03	0.03 ± 0.021	-0.0325 ± 0.06
BF4T:PAI-I	0.007 ± 0.027	0.0105 ± 0.053	0.013 ± 0.037	0.01 ± 0.024	-0.0075 ± 0.0092	-0.001 ± 0.017	0.0055 ± 0.012	-0.0075 ± 0.005	0.002 ± 0.04	0.002 ± 0.017	0.0135 ± 0.015	0.0015 ± 0.032	-0.0005 ± 0.021	0.011 ± 0.0028	0.007 ± 0.0014	-0.004 ± 0.011	-0.038 ± 0.0099	-0.0015 ± 0.012	0.009 ± 0.028	0.001 ± 0.031	-0.0005 ± 0.019	-0.0095 ± 0.021	0.004 ± 0.0085	0.0115 ± 0.0021	0.0025 ± 0.013	-0.01 ± 0.0042	0.0105 ± 0.035	0.003 ± 0.0085	0.013 ± 0.02	0.0055 ± 0.025
